# Source: the supplement of paper PMC8728848
# The list shows a part of the results.
# B1: PX9961KLbvu-535-38-535 (Bacteroides vulgatus) (protein)
# chain: DKAYTDAESYTKGLHKIYSVWALSGQDGSSSSDISGLDAGNTALLRCWWTLQEQPTDEMKNAWNDAWCTEVNYMTWTTNKVEPIEGVYQRCMYIVALVNEFLKNIPNAPESIDKESYIAQARFNRAFAYYVLMDMFALPPFITEKNYSIEPAPLSREDLFNWIEAELNEIKPNLPSPRSEYGVADQAVASALLARMYLNAEIYTGKARYTECINACNEVIKAGYQLADNYADLFKADNGENPDTKKEIIYPIIFDGDKTQSWGMAAIIIGARGAEDKDVLLAHSGVDQGWAGFRATSNLVHLFDFQNDEEPKASEIQDKRGIFYDKGRSIDITSSVSGTFETEGWSVFKFSNLNSNGQPGKNTLWVDTDFPMFRLGDIYLMYAEAVARGGEGSKASAVEYINALRKRAYGDDKHNISENWLEENNFRNLLDERGRELYWEGIRRTDLVRFDLLTSGSYTWDFKGGINTGVGVNKRYNVYPIPVTDLTVNGNLQQNEGY
# Experiments:
# Experiment in all cases: glycan array binding signal (z-score within array); higher = stronger binding
# Conditions in all cases: glycan notation: IUPAC condensed, linker removed
# [1] = biological target: Neu5Ac(a2-3)Gal(b1-3)GalNAc
# How it was run: (§1)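 Columns mapping to the same glycan were averaged after glycan names were converted to IUPAC-condensed notation. The data come from 3228 arrays in the Consortium for Functional Glycomics database, limited to those with an available protein sequence. Binding is reported as a within-array Z-score averaged across arrays of one protein sequence and across linkers.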
# [2] = biological target: Neu5Ac(a2-3)Gal(b1-3)GalNAc(b1-3)Gal(a1-4)Gal(b1-4)Glc
# How it was run: as §1
# [3] = biological target: Neu5Ac(a2-3)Gal(b1-3)GalNAc(b1-4)[Neu5Ac(a2-3)]Gal(b1-4)Glc
# How it was run: as §1
# [4] = biological target: Neu5Ac(a2-3)Gal(b1-3)GalNAc(b1-4)[Neu5Ac(a2-8)Neu5Ac(a2-3)]Gal(b1-4)Glc
# How it was run: as §1
# [5] = biological target: Neu5Ac(a2-3)Gal(b1-3)GalNAc6S
# How it was run: as §1
# [6] = biological target: Neu5Ac(a2-3)Gal(b1-3)GlcNAc
# How it was run: as §1
# [7] = biological target: Neu5Ac(a2-3)Gal(b1-3)GlcNAc(b1-2)Man
# How it was run: as §1
# [8] = biological target: Neu5Ac(a2-3)Gal(b1-3)GlcNAc(b1-2)Man(a1-3)[GlcNAc(b1-4)][Neu5Ac(a2-3)Gal(b1-3)GlcNAc(b1-2)Man(a1-6)]Man(b1-4)GlcNAc(b1-4)GlcNAc
# How it was run: as §1
# [9] = biological target: Neu5Ac(a2-3)Gal(b1-3)GlcNAc(b1-2)Man(a1-3)[Neu5Ac(a2-3)Gal(b1-3)GlcNAc(b1-2)Man(a1-6)]Man(b1-4)GlcNAc(b1-4)GlcNAc
# How it was run: as §1
# [10] = biological target: Neu5Ac(a2-3)Gal(b1-3)GlcNAc(b1-3)Gal(b1-3)GlcNAc
# How it was run: as §1
# [11] = biological target: Neu5Ac(a2-3)Gal(b1-3)GlcNAc(b1-3)Gal(b1-4)GlcNAc
# How it was run: as §1
# [12] = biological target: Neu5Ac(a2-3)Gal(b1-3)GlcNAc(b1-3)GalNAc
# How it was run: as §1
# [13] = biological target: Neu5Ac(a2-3)Gal(b1-3)GlcNAc(b1-4)Gal(b1-4)Glc
# How it was run: as §1
# [14] = biological target: Neu5Ac(a2-3)Gal(b1-3)GlcNAc(b1-6)GalNAc
# How it was run: as §1
# [15] = biological target: Neu5Ac(a2-3)Gal(b1-3)GlcNAc6S
# How it was run: as §1
# [16] = biological target: Neu5Ac(a2-3)Gal(b1-3)[Fuc(a1-4)]GlcNAc
# How it was run: as §1
# [17] = biological target: Neu5Ac(a2-3)Gal(b1-3)[Fuc(a1-4)]GlcNAc(b1-3)Gal(b1-3)[Fuc(a1-4)]GlcNAc
# How it was run: as §1
# [18] = biological target: Neu5Ac(a2-3)Gal(b1-3)[Fuc(a1-4)]GlcNAc(b1-3)Gal(b1-4)[Fuc(a1-3)]GlcNAc
# How it was run: as §1
# [19] = biological target: Neu5Ac(a2-3)Gal(b1-3)[GlcNAc(b1-6)]GalNAc
# How it was run: as §1
# [20] = biological target: Neu5Ac(a2-3)Gal(b1-3)[Neu5Ac(a2-6)]GalNAc
# How it was run: as §1
# [21] = biological target: Neu5Ac(a2-3)Gal(b1-3)[Neu5Ac(a2-6)]GlcNAc(b1-3)[Fuc(a1-3)[Gal(b1-4)]GlcNAc(b1-6)]Gal(b1-4)Glc
# How it was run: as §1
# [22] = biological target: Neu5Ac(a2-3)Gal(b1-3)]Neu5Ac(a2-3)Gal(b1-4)]GlcNAc
# How it was run: as §1
# Neu5Ac(a2-3)Gal(b1-4)Glc = biological target: Neu5Ac(a2-3)Gal(b1-4)Glc
# How it was run: as §1
# [23] = biological target: Neu5Ac(a2-3)Gal(b1-4)GlcNAc
# How it was run: as §1
# [24] = biological target: Neu5Ac(a2-3)Gal(b1-4)GlcNAc(b1-2)Man
# How it was run: as §1
# [25] = biological target: Neu5Ac(a2-3)Gal(b1-4)GlcNAc(b1-2)Man(a1-3)[GlcNAc(b1-4)][Neu5Ac(a2-3)Gal(b1-4)GlcNAc(b1-2)Man(a1-6)]Man(b1-4)GlcNAc(b1-4)GlcNAc
# How it was run: as §1
# [26] = biological target: Neu5Ac(a2-3)Gal(b1-4)GlcNAc(b1-2)Man(a1-3)[Neu5Ac(a2-3)Gal(b1-4)GlcNAc(b1-2)Man(a1-6)]Man(b1-4)GlcNAc(b1-4)GlcNAc
# How it was run: as §1
# [27] = biological target: Neu5Ac(a2-3)Gal(b1-4)GlcNAc(b1-2)Man(a1-3)[Neu5Ac(a2-3)Gal(b1-4)GlcNAc(b1-2)Man(a1-6)]Man(b1-4)GlcNAc(b1-4)[Fuc(a1-6)]GlcNAc
# How it was run: as §1
# [28] = biological target: Neu5Ac(a2-3)Gal(b1-4)GlcNAc(b1-2)Man(a1-3)[Neu5Ac(a2-6)Gal(b1-4)GlcNAc(b1-2)Man(a1-6)]Man(b1-4)GlcNAc(b1-4)GlcNAc
# How it was run: as §1
# [29] = biological target: Neu5Ac(a2-3)Gal(b1-4)GlcNAc(b1-2)[Neu5Ac(a2-3)Gal(b1-4)GlcNAc(b1-4)]Man(a1-3)[GlcNAc(b1-4)][Neu5Ac(a2-3)Gal(b1-4)GlcNAc(b1-2)[Neu5Ac(a2-3)Gal(b1-4)GlcNAc(b1-6)]Man(a1-6)]Man(b1-4)GlcNAc(b1-4)GlcNAc
# How it was run: as §1
# [30] = biological target: Neu5Ac(a2-3)Gal(b1-4)GlcNAc(b1-2)[Neu5Ac(a2-3)Gal(b1-4)GlcNAc(b1-4)]Man(a1-3)[GlcNAc(b1-4)][Neu5Ac(a2-3)Gal(b1-4)GlcNAc(b1-4)Man(a1-6)]Man(b1-4)GlcNAc(b1-4)GlcNAc
# How it was run: as §1
# [31] = biological target: Neu5Ac(a2-3)Gal(b1-4)GlcNAc(b1-2)[Neu5Ac(a2-3)Gal(b1-4)GlcNAc(b1-6)]Man(a1-6)[Neu5Ac(a2-3)Gal(b1-4)GlcNAc(b1-2)Man(a1-3)]Man(b1-4)GlcNAc(b1-4)GlcNAc
# How it was run: as §1
# [32] = biological target: Neu5Ac(a2-3)Gal(b1-4)GlcNAc(b1-2)[Neu5Ac(a2-3)Gal(b1-4)GlcNAc(b1-6)]Man(a1-6)[Neu5Ac(a2-3)Gal(b1-4)GlcNAc(b1-2)Man(a1-3)][GlcNAc(b1-4)]Man(b1-4)GlcNAc(b1-4)GlcNAc
# How it was run: as §1
# [33] = biological target: Neu5Ac(a2-3)Gal(b1-4)GlcNAc(b1-3)Gal
# How it was run: as §1
# [34] = biological target: Neu5Ac(a2-3)Gal(b1-4)GlcNAc(b1-3)Gal(b1-3)GlcNAc
# How it was run: as §1
# [35] = biological target: Neu5Ac(a2-3)Gal(b1-4)GlcNAc(b1-3)Gal(b1-4)GlcNAc
# How it was run: as §1
# [36] = biological target: Neu5Ac(a2-3)Gal(b1-4)GlcNAc(b1-3)Gal(b1-4)GlcNAc(b1-2)Man(a1-3)[Neu5Ac(a2-3)Gal(b1-4)GlcNAc(b1-3)Gal(b1-4)GlcNAc(b1-2)Man(a1-6)]Man(b1-4)GlcNAc(b1-4)GlcNAc
# How it was run: as §1
binder,measurement,setting,value
B1,glycan array binding signal (z-score),[1],-0.336
same,glycan array binding signal (z-score),[2],0.885
same,glycan array binding signal (z-score),[3],-0.037
same,glycan array binding signal (z-score),[4],0.204
same,glycan array binding signal (z-score),[5],0.146
same,glycan array binding signal (z-score),[6],-0.099
same,glycan array binding signal (z-score),[7],-0.376
same,glycan array binding signal (z-score),[8],-0.83
same,glycan array binding signal (z-score),[9],-0.083
same,glycan array binding signal (z-score),[10],-0.677
same,glycan array binding signal (z-score),[11],0.054
same,glycan array binding signal (z-score),[12],-0.512
same,glycan array binding signal (z-score),[13],-0.755
same,glycan array binding signal (z-score),[14],0.328
same,glycan array binding signal (z-score),[15],-0.604
same,glycan array binding signal (z-score),[16],1.01
same,glycan array binding signal (z-score),[17],0.17
same,glycan array binding signal (z-score),[18],-0.139
same,glycan array binding signal (z-score),[19],-0.101
same,glycan array binding signal (z-score),[20],-0.184
same,glycan array binding signal (z-score),[21],-0.377
same,glycan array binding signal (z-score),[22],-0.578
same,glycan array binding signal (z-score),Neu5Ac(a2-3)Gal(b1-4)Glc,-0.637
same,glycan array binding signal (z-score),[23],-0.139
same,glycan array binding signal (z-score),[24],-0.477
same,glycan array binding signal (z-score),[25],-0.451
same,glycan array binding signal (z-score),[26],0.024
same,glycan array binding signal (z-score),[27],0.475
same,glycan array binding signal (z-score),[28],-0.154
same,glycan array binding signal (z-score),[29],-0.599
same,glycan array binding signal (z-score),[30],0.424
same,glycan array binding signal (z-score),[31],0.865
same,glycan array binding signal (z-score),[32],-0.043
same,glycan array binding signal (z-score),[33],-0.839
same,glycan array binding signal (z-score),[34],-0.662
same,glycan array binding signal (z-score),[35],-0.635
same,glycan array binding signal (z-score),[36],0.428
